Data as given in PubChem BioAssay AID1259274 (Sanger Institute, 2017).

- Test: 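Kinases RKO cells need to grow, alone or with anchor drugs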 (primary screen)
- System: human RKO colorectal cancer cells
- Knock-down reagent: siRNA pool against human genes
- Conditions: anchor drugs BYL719 at 1 µM, cetuximab at 5 µg/ml or trametinib at 10 nM; DMSO vehicle as the no-drug arm
- Measured: 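Viability as fraction of non-targeting pool 2 control, averaged across replicates, robust z-score for single knock-down, and a combination synergy score per anchor drug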
- Scale: viability z-score, siRNA alone: higher = more viable cells; low values mean essential gene; viability, siRNA alone, vehicle: higher = more viable cells; synergy score with BYL719 and synergy score with Trametinib and synergy score with Cetuximab: higher = stronger combined killing with the drug
- Hit rule: 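Essential when the robust viability z-score with siRNA only falls below -3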
- Calls: active = essential when knocked down alone; inactive = no change alone
The whole screen tested 794 reagents; this is a part drawn at random. 11 of them (1.4%) count as active. 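Calls rest on knock-down without drug only; synergy scores with anchor drugs were not used for the essential call.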 A number with no mark means an inactive call. No viability above 1 is reported: the scale is capped. The record does not give: the amount of reagent, the time to read-out.

The opening 5 records, to show the layout:
| gene | viability z-score, siRNA alone | viability, siRNA alone, vehicle (fraction of control) | synergy score with BYL719 | synergy score with Trametinib | synergy score with Cetuximab |
| --- | --- | --- | --- | --- | --- |
| UCK1 (uridine-cytidine kinase 1) | 0.446 | 0.936 | -0.0916 | -0.136 | -0.0638 |
| ADGRL2 (adhesion G protein-coupled receptor L2) | -0.85 | 0.825 | -0.0544 | -0.11 | -0.112 |
| EPHA3 (EPH receptor A3) | -0.428 | 0.861 | 0.00987 | -0.0556 | 0.0526 |
| STK16 (serine/threonine kinase 16) | 0.898 | 0.975 | -0.108 | -0.309 | 0.0545 |
| AKT2 (AKT serine/threonine kinase 2) | 1.11 | 0.993 | -0.00943 | -0.0913 | 0.0383 |

The listing, from the start:
| gene | viability z-score, siRNA alone | viability, siRNA alone, vehicle (fraction of control) | synergy score with BYL719 | synergy score with Trametinib | synergy score with Cetuximab |
| --- | --- | --- | --- | --- | --- |
| UCK1 (uridine-cytidine kinase 1) | 0.446 | 0.936 | -0.0916 | -0.136 | -0.0638 |
| ADGRL2 (adhesion G protein-coupled receptor L2) | -0.85 | 0.825 | -0.0544 | -0.11 | -0.112 |
| EPHA3 (EPH receptor A3) | -0.428 | 0.861 | 0.00987 | -0.0556 | 0.0526 |
| STK16 (serine/threonine kinase 16) | 0.898 | 0.975 | -0.108 | -0.309 | 0.0545 |
| AKT2 (AKT serine/threonine kinase 2) | 1.11 | 0.993 | -0.00943 | -0.0913 | 0.0383 |
| DLG4 (discs large MAGUK scaffold protein 4) | 1.17 | 0.998 | 0.0445 | -0.131 | 0.0183 |
| RUNX1 (RUNX family transcription factor 1) | -0.564 | 0.85 | 0.0273 | -0.0541 | -0.118 |
| STK17B (serine/threonine kinase 17b) | 0.409 | 0.933 | 0.09 | -0.145 | 0.0901 |
| HASPIN (histone H3 associated protein kinase) | -0.909 | 0.82 | -0.0891 | -0.0678 | -0.062 |
| MARK3 (microtubule affinity regulating kinase 3) | 1.19 | 1 | 0.0264 | -0.225 | 0.185 |
| GUCY2F (guanylate cyclase 2F, retinal) | -1.33 | 0.784 | -0.234 | -0.293 | -0.144 |
| RPS6KB2 (ribosomal protein S6 kinase B2) | -0.475 | 0.857 | -0.0275 | -0.155 | -0.0247 |
| CMPK1 (cytidine/uridine monophosphate kinase 1) | -0.207 | 0.88 | -0.135 | -0.156 | -0.0414 |
| MARK4 (microtubule affinity regulating kinase 4) | 0.131 | 0.909 | 0.0784 | 0.00943 | 0.0708 |
| NME2 (NME/NM23 nucleoside diphosphate kinase 2) | 0.0919 | 0.906 | -0.0487 | -0.169 | -0.0652 |
| NAGK (N-acetylglucosamine kinase) | -1.47 | 0.772 | -0.0718 | -0.057 | -0.00736 |
| MAP3K13 (mitogen-activated protein kinase kinase kinase 13) | 0.597 | 0.949 | 0.0309 | -0.0813 | 0.00332 |
| IP6K2 (inositol hexakisphosphate kinase 2) | -0.576 | 0.849 | -0.0729 | -0.146 | -0.116 |
| MERTK (MER proto-oncogene, tyrosine kinase) | 0.544 | 0.945 | -0.0724 | -0.248 | 0.0243 |
| PI4KA (phosphatidylinositol 4-kinase alpha) | 0.338 | 0.927 | -0.18 | -0.274 | -0.0731 |
| CDK1 (cyclin dependent kinase 1) | -0.706 | 0.838 | -0.139 | -0.184 | -0.0855 |
| KDR (kinase insert domain receptor) | 0.675 | 0.956 | -0.103 | -0.25 | -0.0442 |
| GTF2H1 (general transcription factor IIH subunit 1) | -0.416 | 0.862 | -0.0454 | -0.0809 | -0.0433 |
| CDADC1 (cytidine and dCMP deaminase domain containing 1) | 0.153 | 0.911 | -0.0617 | -0.22 | -0.0448 |
| CDC73 (cell division cycle 73) | -4.89 (active) | 0.479 | -0.19 | -0.145 | -0.119 |
| STAG2 (STAG2 cohesin complex component) | -0.312 | 0.871 | -0.0875 | -0.189 | -0.0601 |
| FGFR1 (fibroblast growth factor receptor 1) | 0.365 | 0.929 | -0.0714 | -0.239 | -0.0707 |
| PXK (PX domain containing serine/threonine kinase like) | 0.241 | 0.919 | -0.0887 | -0.163 | -0.0592 |
| DDR2 (discoidin domain receptor tyrosine kinase 2) | 0.676 | 0.956 | -0.0498 | -0.0864 | -0.0441 |
| MAP2K6 (mitogen-activated protein kinase kinase 6) | 1.19 | 1 | 0.00208 | -0.152 | 0 |
| SIK1 (salt inducible kinase 1) | 0.0405 | 0.901 | -0.0194 | -0.0256 | 0.0769 |
| MSR1 (macrophage scavenger receptor 1) | 0.475 | 0.939 | -0.0758 | -0.129 | 0.0595 |
| SRPK2 (SRSF protein kinase 2) | -1.12 | 0.802 | -0.0809 | -0.0978 | 0.0476 |
| COMMD3 (COMM domain containing 3) | 0.0885 | 0.906 | -0.21 | -0.256 | -0.00297 |
| ATRX (ATRX chromatin remodeler) | -0.364 | 0.867 | -0.152 | -0.273 | -0.133 |
| MAP2K4 (mitogen-activated protein kinase kinase 4) | -0.95 | 0.817 | -0.12 | -0.258 | -0.132 |
| MECOM (MDS1 and EVI1 complex locus) | 0.296 | 0.923 | -0.0819 | -0.12 | -0.0766 |
| STK17A (serine/threonine kinase 17a) | -0.756 | 0.833 | -0.151 | -0.117 | -0.00318 |
| TSSK4 (testis specific serine kinase 4) | 0.673 | 0.956 | 0.0705 | -0.032 | -0.017 |
| PI4K2A (phosphatidylinositol 4-kinase type 2 alpha) | 0.701 | 0.958 | -0.116 | -0.202 | -0.0419 |
| DGKB (diacylglycerol kinase beta) | -0.753 | 0.833 | 0.113 | -0.142 | 0.0454 |
| CDK7 (cyclin dependent kinase 7) | 1.19 | 1 | 0.115 | -0.121 | 0 |
| FLT1 (fms related receptor tyrosine kinase 1) | 1.19 | 1 | -0.0204 | -0.307 | 0 |
| RAF1 (Raf-1 proto-oncogene, serine/threonine kinase) | 1.19 | 1 | -0.049 | -0.141 | 0 |
| MPP1 (MAGUK p55 scaffold protein 1) | 1.19 | 1 | -0.134 | -0.076 | 0 |
| DLG3 (discs large MAGUK scaffold protein 3) | -0.78 | 0.831 | -0.0563 | -0.155 | -0.151 |
| PRKAA1 (protein kinase AMP-activated catalytic subunit alpha 1) | 0.322 | 0.926 | -0.0116 | -0.167 | 0.031 |
| DAPK2 (death associated protein kinase 2) | -0.484 | 0.857 | -0.146 | -0.25 | -0.0875 |
| NTRK1 (neurotrophic receptor tyrosine kinase 1) | -0.789 | 0.83 | -0.0238 | -0.0867 | -0.126 |
| ALPK1 (alpha kinase 1) | -0.293 | 0.873 | 0.0162 | -0.146 | -0.0881 |
